No constants are given. Whether binding was seen depends on the method and setting. Binding seen in cells or lysates may run through a third protein. Where a sequence is shown, tags or fusion partners need not be part of it.

Amino acid sequences for entries named in this document (tags omitted).
UniProt Q9GZV5: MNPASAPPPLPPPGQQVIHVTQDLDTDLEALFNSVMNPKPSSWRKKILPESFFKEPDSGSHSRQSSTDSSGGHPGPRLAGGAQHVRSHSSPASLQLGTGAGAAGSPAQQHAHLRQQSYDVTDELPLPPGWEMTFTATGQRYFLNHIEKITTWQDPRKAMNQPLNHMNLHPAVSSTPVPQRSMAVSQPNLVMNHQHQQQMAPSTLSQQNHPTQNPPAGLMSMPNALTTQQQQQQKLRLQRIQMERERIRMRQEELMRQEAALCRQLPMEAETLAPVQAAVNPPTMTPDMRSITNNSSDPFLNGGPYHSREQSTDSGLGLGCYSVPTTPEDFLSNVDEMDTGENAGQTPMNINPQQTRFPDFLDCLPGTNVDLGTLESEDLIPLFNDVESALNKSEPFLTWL

This test concerns the target Flag-TAZ (human) (UniProt Q9GZV5). The experiment in a line: co-IP; HEK293 cells expressing Flag-TAZ-CAMTA1, Flag-TAZ control or Flag-YAP-TFE3, Myc-KAT14 transiently transfected; Flag pull-down against IgG control.

B1: Triple Myc-tagged KAT14 (protein, UniProt Q9H8E8 1-782)
chain: MDSSIHLSSLISRHDDEATRTSTSEGLEEGEVEGETLLIVESEDQASVDLSHDQSGDSLNSDEGDVSWMEEQLSYFCDKCQKWIPASQLREQLSYLKGDNFFRFTCSDCSADGKEQYERLKLTWQQVVMLAMYNLSLEGSGRQGYFRWKEDICAFIEKHWTFLLGNRKKTSTWWSTVAGCLSVGSPMYFRSGAQEFGEPGWWKLVHNKPPTMKPEGEKLSASTLKIKAASKPTLDPIITVEGLRKRASRNPVESAMELKEKRSRTQEAKDIRRAQKEAAGFLDRSTSSTPVKFISRGRRPDVILEKGEVIDFSSLSSSDRTPLTSPSPSPSLDFSAPGTPASHSATPSLLSEADLIPDVMPPQALFHDDDEMEGDGVIDPGMEYVPPPAGSVASGPVVGVRKKVRGPEQIKQEVESEEEKPDRMDIDSEDTDSNTSLQTRAREKRKPQLEKDTKPKEPRYTPVSIYEEKLLLKRLEACPGAVAMTPEARRLKRKLIVRQAKRDRGLPLFDLDQVVNAALLLVDGIYGAKEGGISRLPAGQATYRTTCQDFRILDRYQTSLPSRKGFRHQTTKFLYRLVGSEDMAVDQSIVSPYTSRILKPYIRRDYETKPPKLQLLSQIRSHLHRSDPHWTPEPDAPLDYCYVRPNHIPTINSMCQEFFWPGIDLSECLQYPDFSVVVLYKKVIIAFGFMVPDVKYNEAYISFLFVHPEWRRAGIATFMIYHLIQTCMGKDVTLHVSASNPAMLLYQKFGFKTEEYVLDFYDKYYPLESTECKHAFFLRLRR
On to B1, for which the binding entry is recorded as “no binding”.

The record behind these values is PMC8143797.
